Experimental data: PubChem BioAssay AID1259405 (NCATS, 2018)
In all, the deposit lists about 50,000 reagents; below is a part drawn at random. In the full data, about 4,000 (8%) got an active call. 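Mouse siRNA library applied to hamster cells; one well for each siRNA.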

Assay: 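Mouse-designed siRNAs used to find CHO productivity engineering targets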 (primary screen)
Cell system: Chinese hamster CHO-K1 ovary cells with stable secreted eGFP expression
Reagents: single siRNA against mouse genes, 0.8 pmol siRNA per well (2 µl of 400 nM stock)
Duration: 3 days
Measurement: 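Percent of the per-plate non-targeting control median for intracellular GFP per well by laser scanning cytometry and for cell viability by ATP luminescence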
Scale: GFP, % of control: higher = more GFP per well, higher productivity; viability (ATP), % of control: higher = more viable cells (more ATP)
Active means: 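a knock-down is called active if GFP reaches 120% or more of non-targeting control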

{"gene": "Zfp866", "PubChem SID": "SID363555408", "GFP, % of control": 33.8, "viability (ATP), % of control": 33.3, "outcome": "inactive"}
{"gene": "Zfp866", "PubChem SID": "SID363564069", "GFP, % of control": 45.9, "viability (ATP), % of control": 32.3, "outcome": "inactive"}
{"gene": "Zfp866", "PubChem SID": "SID363587615", "GFP, % of control": 110, "viability (ATP), % of control": 93.4, "outcome": "inactive"}
{"gene": "Or9s15", "PubChem SID": "SID363544478", "GFP, % of control": 75.7, "viability (ATP), % of control": 76.6, "outcome": "inactive"}
{"gene": "Or9s15", "PubChem SID": "SID363550806", "GFP, % of control": 63.2, "viability (ATP), % of control": 73.9, "outcome": "inactive"}
{"gene": "Or9s15", "PubChem SID": "SID363557355", "GFP, % of control": 59.1, "viability (ATP), % of control": 54.3, "outcome": "inactive"}
{"gene": "Gpbar1", "PubChem SID": "SID363571097", "GFP, % of control": 101, "viability (ATP), % of control": 71.4, "outcome": "inactive"}
{"gene": "Gpbar1", "PubChem SID": "SID363571449", "GFP, % of control": 102, "viability (ATP), % of control": 73.1, "outcome": "inactive"}
{"gene": "Gpbar1", "PubChem SID": "SID363571801", "GFP, % of control": 126, "viability (ATP), % of control": 90.8, "outcome": "active"}
{"gene": "Zc3h15", "PubChem SID": "SID363573188", "GFP, % of control": 98.3, "viability (ATP), % of control": 73.8, "outcome": "inactive"}
{"gene": "Zc3h15", "PubChem SID": "SID363588427", "GFP, % of control": 103, "viability (ATP), % of control": 89.3, "outcome": "inactive"}
{"gene": "Tspan31", "PubChem SID": "SID363581708", "GFP, % of control": 86, "viability (ATP), % of control": 76.9, "outcome": "inactive"}
{"gene": "Tspan31", "PubChem SID": "SID363589202", "GFP, % of control": 81.4, "viability (ATP), % of control": 63.5, "outcome": "inactive"}
{"gene": "Or8b12", "PubChem SID": "SID363554622", "GFP, % of control": 88.8, "viability (ATP), % of control": 69, "outcome": "inactive"}
{"gene": "Or8b12", "PubChem SID": "SID363568069", "GFP, % of control": 78.4, "viability (ATP), % of control": 80.3, "outcome": "inactive"}
{"gene": "Or8b12", "PubChem SID": "SID363586128", "GFP, % of control": 81.6, "viability (ATP), % of control": 81.4, "outcome": "inactive"}
{"gene": "Rrp12", "PubChem SID": "SID363542868", "GFP, % of control": 105, "viability (ATP), % of control": 50.3, "outcome": "inactive"}
{"gene": "Rrp12", "PubChem SID": "SID363546385", "GFP, % of control": 81.3, "viability (ATP), % of control": 58.7, "outcome": "inactive"}
{"gene": "Rrp12", "PubChem SID": "SID363548141", "GFP, % of control": 67.5, "viability (ATP), % of control": 87.9, "outcome": "inactive"}
{"gene": "Amph", "PubChem SID": "SID363582568", "GFP, % of control": 188, "viability (ATP), % of control": 144, "outcome": "active"}
{"gene": "Amph", "PubChem SID": "SID363584328", "GFP, % of control": 93.1, "viability (ATP), % of control": 70.2, "outcome": "inactive"}
{"gene": "Or5p80", "PubChem SID": "SID363544921", "GFP, % of control": 135, "viability (ATP), % of control": 74, "outcome": "active"}
{"gene": "Or5p80", "PubChem SID": "SID363551249", "GFP, % of control": 87.9, "viability (ATP), % of control": 83.1, "outcome": "inactive"}
{"gene": "Or5p80", "PubChem SID": "SID363557798", "GFP, % of control": 78.7, "viability (ATP), % of control": 85.9, "outcome": "inactive"}

5 entries from above, arranged by “viability (ATP), % of control”, descending:
{"gene": "Amph", "PubChem SID": "SID363582568", "GFP, % of control": 188, "viability (ATP), % of control": 144, "outcome": "active"}
{"gene": "Rrp12", "PubChem SID": "SID363548141", "GFP, % of control": 67.5, "viability (ATP), % of control": 87.9, "outcome": "inactive"}
{"gene": "Or5p80", "PubChem SID": "SID363544921", "GFP, % of control": 135, "viability (ATP), % of control": 74, "outcome": "active"}
{"gene": "Amph", "PubChem SID": "SID363584328", "GFP, % of control": 93.1, "viability (ATP), % of control": 70.2, "outcome": "inactive"}
{"gene": "Rrp12", "PubChem SID": "SID363546385", "GFP, % of control": 81.3, "viability (ATP), % of control": 58.7, "outcome": "inactive"}

Additional records follow:
{"gene": "Or6k6", "PubChem SID": "SID363544452", "GFP, % of control": 57.6, "viability (ATP), % of control": 63.2, "outcome": "inactive"}
{"gene": "Or6k6", "PubChem SID": "SID363550780", "GFP, % of control": 54.3, "viability (ATP), % of control": 73, "outcome": "inactive"}
{"gene": "Or6k6", "PubChem SID": "SID363557329", "GFP, % of control": 24.5, "viability (ATP), % of control": 74.4, "outcome": "inactive"}
{"gene": "Atp6v0e", "PubChem SID": "SID363569981", "GFP, % of control": 136, "viability (ATP), % of control": 113, "outcome": "active"}
{"gene": "Atp6v0e", "PubChem SID": "SID363577021", "GFP, % of control": 115, "viability (ATP), % of control": 133, "outcome": "inactive"}
{"gene": "Atp6v0e", "PubChem SID": "SID363578429", "GFP, % of control": 53.1, "viability (ATP), % of control": 53.6, "outcome": "inactive"}
{"gene": "Zfp111", "PubChem SID": "SID363573845", "GFP, % of control": 106, "viability (ATP), % of control": 111, "outcome": "inactive"}
{"gene": "Zfp111", "PubChem SID": "SID363581589", "GFP, % of control": 127, "viability (ATP), % of control": 78, "outcome": "active"}
{"gene": "Zfp111", "PubChem SID": "SID363584053", "GFP, % of control": 46.9, "viability (ATP), % of control": 49.1, "outcome": "inactive"}
{"gene": "Abhd17b", "PubChem SID": "SID363552449", "GFP, % of control": 119, "viability (ATP), % of control": 78.7, "outcome": "inactive"}
{"gene": "Abhd17b", "PubChem SID": "SID363585585", "GFP, % of control": 76.4, "viability (ATP), % of control": 77.6, "outcome": "inactive"}
{"gene": "Abhd17b", "PubChem SID": "SID363585936", "GFP, % of control": 118, "viability (ATP), % of control": 113, "outcome": "inactive"}
{"gene": "Or3a1", "PubChem SID": "SID363544627", "GFP, % of control": 36.8, "viability (ATP), % of control": 19.1, "outcome": "inactive"}
{"gene": "Or3a1", "PubChem SID": "SID363550955", "GFP, % of control": 109, "viability (ATP), % of control": 80.8, "outcome": "inactive"}
{"gene": "Or3a1", "PubChem SID": "SID363557504", "GFP, % of control": 79.8, "viability (ATP), % of control": 75, "outcome": "inactive"}
{"gene": "Piga", "PubChem SID": "SID363570651", "GFP, % of control": 103, "viability (ATP), % of control": 105, "outcome": "inactive"}
{"gene": "Piga", "PubChem SID": "SID363579451", "GFP, % of control": 91.7, "viability (ATP), % of control": 110, "outcome": "inactive"}
{"gene": "Piga", "PubChem SID": "SID363583323", "GFP, % of control": 58.6, "viability (ATP), % of control": 81.3, "outcome": "inactive"}
